Experimental data: PubChem BioAssay AID1259405 (NCATS, 2018)
This is one part, drawn at random, of about 50,000 reagents tested. Of all reagents, about 4,000 (8%) were called active. 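Mouse siRNA library applied to hamster cells; one well for each siRNA.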 Reagents against one gene are numbered here.

Purpose: 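Knock-downs that lift recombinant protein yield in hamster ovary cells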 (primary screen)
System: Chinese hamster CHO-K1 ovary cells with stable secreted eGFP expression
Reagents: single siRNA against mouse genes, 0.8 pmol siRNA per well (2 µl of 400 nM stock)
Time to read-out: 3 days
Measurement: 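Per-well intracellular GFP measured by laser scanning cytometry, plus viability from ATP luminescence, each relative to plate median of non-targeting control wells, in %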
Scale: GFP, % of control: higher = more GFP per well, higher productivity; viability (ATP), % of control: higher = more viable cells (more ATP)
Active means: 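Called active when intracellular GFP, relative to negative control, is at or above 120%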

Gene,siRNA no.,"GFP, % of control","viability (ATP), % of control",outcome
Notum,1,86.6,107,inactive
Notum,2,94.7,87,inactive
Notum,3,107,114,inactive
Polr3a,1,65,83,inactive
Polr3a,2,110,62.7,inactive
Polr3a,3,76.2,85.6,inactive
Pygb,1,68.5,72,inactive
Pygb,2,83.1,99.9,inactive
Pygb,3,52.6,50.4,inactive
Ccdc60,1,53.4,53.5,inactive
Ccdc60,2,60.9,75.1,inactive
Ccdc60,3,117,91.9,inactive
Bdh1,1,95.2,97.7,inactive
Bdh1,2,65.5,74.5,inactive
Bdh1,3,53.5,70.8,inactive
Cep43,1,70.1,77.6,inactive
Cep43,2,36.3,50.9,inactive
Cep43,3,40.4,63.3,inactive
Neurog2,1,87,97,inactive
Neurog2,2,61.1,56.4,inactive
Neurog2,3,69.7,95.9,inactive
Tap2,1,116,88.9,inactive
Tap2,2,77.2,58.1,inactive
Tap2,3,101,81.5,inactive
Cd300a,1,48.3,35.9,inactive
Cd300a,2,70.9,62.2,inactive
Cd300a,3,102,64.6,inactive
Grk2,1,96.3,87.3,inactive
Taf5,1,91.2,54.6,inactive
Taf5,2,56.9,72.7,inactive
Taf5,3,131,127,active
Cflar,1,127,105,active
Cflar,2,144,89.5,active
Cflar,3,41.4,49.9,inactive
Csnk1a1,1,84.3,94.4,inactive
Csnk1a1,2,18.5,18.5,inactive
Csnk1a1,3,90,106,inactive
Or4d11,1,87.5,90.5,inactive
Or4d11,2,148,95.5,active
Or4d11,3,57.9,104,inactive
Afg2b,1,74.7,95.2,inactive
Afg2b,2,98.8,70.6,inactive
Dnajb2,1,86.5,91.3,inactive
Dnajb2,2,52.1,91.5,inactive
Dnajb2,3,46.7,110,inactive
Sval2,1,104,65.3,inactive
Sval2,2,71.2,87.1,inactive
Sval2,3,159,160,active
Slc16a14,1,87.1,92.5,inactive
Slc16a14,2,65.6,74.4,inactive
Slc16a14,3,56.1,63.6,inactive
Hrnr,1,73.2,63.6,inactive
Hrnr,2,54.9,49.5,inactive
Hrnr,3,87.9,89.9,inactive
Psmc5,1,46.2,29.3,inactive
Psmc5,2,60.8,54.4,inactive
Psmc5,3,111,93.1,inactive
Tomm40l,1,55.6,58.9,inactive
Tomm40l,2,111,109,inactive
Tomm40l,3,103,140,inactive
Garin1b,1,78.6,52.6,inactive
Garin1b,2,58.5,62.7,inactive
Garin1b,3,128,107,active
Slc31a2,1,60.9,113,inactive
Slc31a2,2,57.5,64.9,inactive
Slc31a2,3,79.3,84.2,inactive
Pdlim3,1,63.9,65.9,inactive
Pdlim3,2,38,57.8,inactive
Pdlim3,3,30.9,34.3,inactive
Rerg,1,156,88.6,active
Rerg,2,125,76.4,active
Rerg,3,98.1,94.9,inactive
Scaf1,1,115,66,inactive
Scaf1,2,97.2,95.9,inactive
Scaf1,3,118,84.4,inactive
Jmjd1c,1,87.1,65,inactive
Jmjd1c,2,90.5,88.4,inactive
Snrpn,1,73.8,91.3,inactive
Snrpn,2,54.5,56.5,inactive
Csf2rb2,1,95.4,50.2,inactive
Csf2rb2,2,74.3,87.9,inactive
Csf2rb2,3,66.2,67.9,inactive
Gdpd4,1,62.7,92,inactive
Gdpd4,2,94.7,79.7,inactive
Gdpd4,3,106,85.7,inactive
